The supplement of paper PMC9015667
Counter-ions that a name gives are not always drawn. The list shows a part of the results. Many values rest on one well or one pass, so single values are uncertain.

Experiments:
Test in all cases: reduction in cell viability relative to untreated/vehicle; higher = more growth inhibition
Conditions in all cases: 200 nM; 72 h
[1] = test system: M229P (parental melanoma line)
[2] = test system: M229R (matched melanoma line resistant to BRAF inhibitors)
[3] = test system: M238P (parental melanoma line)
[4] = test system: M238R (matched melanoma line resistant to BRAF inhibitors)
[5] = test system: M249P (parental melanoma line)
[6] = test system: M249R (matched melanoma line resistant to BRAF inhibitors)
[7] = test system: UACC62P (parental melanoma line)
[8] = test system: UACC62R (matched melanoma line resistant to BRAF inhibitors)

SMILES	reduction in cell viability [1] [%]	reduction in cell viability [2] [%]	reduction in cell viability [3] [%]	reduction in cell viability [4] [%]	reduction in cell viability [5] [%]	reduction in cell viability [6] [%]	reduction in cell viability [7] [%]	reduction in cell viability [8] [%]
O=C1c2c(O)ccc(O)c2C(=O)c2c(NCCNCCO)ccc(NCCNCCO)c21 [Mitoxantrone]	79.9	70.5	88.5	85.9	84	84	87.5	81.9
C[C@@H]1C/C=C/C=C/C=C/C=C/[C@H](O[C@@H]2O[C@H](C)[C@@H](O)[C@H](N)[C@@H]2O)C[C@@H]2O[C@](O)(C[C@@H](O)C[C@H]3O[C@@H]3/C=C/C(=O)O1)C[C@H](O)[C@H]2C(=O)O	< 0	< 0	< 0	< 0	< 0	< 0	< 0	< 0
CN1CCC(=C2c3ccccc3C=Cc3ccccc32)CC1 [Cyproheptadine hydrochloride]	< 0	< 0	< 0	< 0	< 0	5.69	< 0	< 0
CCO[C@@H]1OC(=O)C[C@@H]1NC(=O)[C@@H]1CCCN1C(=O)[C@@H](NC(=O)c1ccc(N)c(Cl)c1)C(C)(C)C	< 0	< 0	< 0	< 0	< 0	< 0	< 0	< 0
COc1cc(NCc2ccc3nc(N)nc(N)c3c2C)cc(OC)c1OC [Trimetrexate]	43.5	65.9	53.7	< 0	44.1	6.35	46.4	45.2
C=CCc1cc(OC)c(O)c(C(=O)NCCO)c1 [Alibendol]	< 0	< 0	< 0	< 0	< 0	< 0	< 0	< 0
O=C(O)[C@@H](c1ccc(OCc2ccc3ccccc3n2)cc1)C1CCCC1 [Veliflapon]	< 0	< 0	< 0	< 0	< 0	< 0	5.04	< 0
C=C1C(=O)O[C@H]2[C@H]1CC/C(C)=C/CC[C@@]1(C)O[C@@H]21 [Parthenolide]	< 0	8.55	0.71	< 0	< 0	< 0	< 0	< 0
CN1CCCN=C1/C=C/c1cccs1 [Pyrantel pamoate]	< 0	< 0	< 0	< 0	< 0	< 0	< 0	< 0
COc1cc(CNC(=O)CCCC/C=C/C(C)C)ccc1O [Capsaicin]	< 0	< 0	< 0	< 0	< 0	< 0	< 0	< 0
NC(=O)N1c2ccccc2CC(=O)c2ccccc21 [Oxcarbazepine]	< 0	< 0	< 0	< 0	< 0	< 0	< 0	< 0
O=c1ccc2ccc(O)c(O)c2o1 [Daphnetin]	< 0	< 0	< 0	< 0	< 0	< 0	3.29	< 0
CC(=O)Nc1nc(C)c(-c2ccc(Cl)c(S(=O)(=O)NCCO)c2)s1	< 0	< 0	< 0	< 0	< 0	< 0	< 0	< 0
COc1ccc2c(c1)CC[C@H](CN(C)CC(=O)O)[C@@H]2c1ccccc1	< 0	< 0	< 0	< 0	< 0	9.67	< 0	< 0
COc1nc(C)nc(Cl)c1NC1=NCCN1 [Moxonidine hydrochloride hydrate]	< 0	< 0	< 0	< 0	< 0	< 0	< 0	< 0
CC(=O)Oc1ccccc1C(=O)O [Aspirin]	< 0	< 0	< 0	< 0	< 0	< 0	< 0	< 0
CC(C(C)N1CC(=O)NC(=O)C1)N1CC(=O)NC(=O)C1 (configuration not stated)	< 0	< 0	< 0	< 0	< 0	< 0	< 0	< 0
CNCC[C@H](Oc1cccc2ccccc12)c1cccs1 [Duloxetine hydrochloride]	< 0	< 0	< 0	< 0	< 0	< 0	< 0	< 0
C[C@@H]1C(=O)O[C@H]2C[C@@]34[C@H]5C[C@@H](C(C)(C)C)[C@]36[C@@H](OC(=O)[C@@H]6O)O[C@@]4(C(=O)O5)[C@]21O [Ginkgolide A]	< 0	< 0	< 0	< 0	< 0	< 0	< 0	< 0
CC(C(=O)O)c1ccc(-c2ccccc2)c(F)c1 (configuration not stated) [Flurbiprofen]	< 0	< 0	< 0	< 0	< 0	< 0	2.43	< 0
N#Cc1ccc(Oc2ccc3c(c2)COB3O)cc1	< 0	< 0	< 0	< 0	< 0	< 0	< 0	< 0
CC(C)n1nc(-c2cc3cc(O)ccc3[nH]2)c2c(N)ncnc21	6.07	< 0	16.4	32.1	12.3	36.1	25.8	18.8

SMILES	reduction in cell viability [1] [%]	reduction in cell viability [2] [%]	reduction in cell viability [3] [%]	reduction in cell viability [4] [%]	reduction in cell viability [5] [%]	reduction in cell viability [6] [%]	reduction in cell viability [7] [%]	reduction in cell viability [8] [%]
CNC(=O)c1ccc(Nc2cc(Nc3ccccc3S(=O)(=O)C(C)C)c3cc[nH]c3n2)nc1	< 0	22.2	< 0	< 0	< 0	< 0	< 0	< 0
CNC(=O)c1ccc2cc([C@@]3(O)CCn4cncc43)ccc2c1 [Orteronel]	< 0	< 0	< 0	< 0	< 0	< 0	< 0	< 0
O=C(/C=C/c1ccc(O)cc1)c1ccc(O)cc1O [Isoliquiritigenin]	< 0	< 0	< 0	< 0	< 0	< 0	< 0	< 0
CC(=O)Nc1ccc([C@H](C)C(=O)Nc2ncc(C(C)C)s2)cc1	< 0	< 0	< 0	< 0	< 0	3.43	< 0	< 0
COC(=O)[C@]12CCC(C)(C)C[C@H]1[C@H]1C(=O)C=C3[C@@]4(C)C=C(C#N)C(=O)C(C)(C)[C@@H]4CC[C@@]3(C)[C@]1(C)CC2 [Bardoxolone methyl]	< 0	< 0	9.68	< 0	20.9	19.8	5.05	4.61
CN1CCN(C2=Nc3cc(Cl)ccc3Nc3ccccc32)CC1 [Clozapine]	< 0	< 0	< 0	< 0	< 0	< 0	< 0	< 0
O=c1c2ccccc2nc2n1CCc1c-2[nH]c2ccccc12 [Rutaecarpine]	< 0	< 0	< 0	< 0	< 0	2.83	< 0	< 0
O=C(CCCCCCC(=O)Nc1ccccc1)NO [Suberoylanilide hydroxamic acid]	< 0	14.9	< 0	< 0	< 0	< 0	< 0	< 0
CNc1nccc(-c2cccnc2Oc2cc(C(=O)Nc3cccc(C(F)(F)F)c3)ccc2C)n1	26.3	< 0	32.3	< 0	22.8	4.72	57.5	< 0
Cc1cn([C@H]2O[C@@H](CO)[C@H](O)[C@H]2F)c(=O)[nH]c1=O [Clevudine]	< 0	< 0	< 0	< 0	2.78	< 0	3.64	< 0
CN(C)CCc1c[nH]c2ccc(Cn3cncn3)cc12 [Rizatriptan benzoate]	< 0	< 0	< 0	< 0	0.43	< 0	< 0	< 0
OC[C@@H](O)[C@@H](O)[C@@H](O)CO [Ribitol]	< 0	< 0	< 0	< 0	< 0	< 0	< 0	< 0
COC[C@@H](c1ccc(C(F)(F)F)cc1)N1CCN(C2(C)CCN(C(=O)c3c(C)ncnc3C)CC2)C[C@@H]1C [Vicriviroc maleate]	< 0	< 0	< 0	< 0	< 0	< 0	< 0	< 0
CN1CCN(CCOc2cc(OC3CCOCC3)c3c(Nc4c(Cl)ccc5c4OCO5)ncnc3c2)CC1 [Saracatinib]	< 0	6.72	< 0	< 0	< 0	< 0	< 0	1.23
CC1(C)[C@H](C(=O)O)N2C(=O)C[C@H]2S1(=O)=O [Sulbactam]	< 0	< 0	< 0	< 0	< 0	< 0	< 0	< 0
Nc1ncnc2c1ncn2[C@@H]1O[C@H](CO)C[C@H]1O [Cordycepin]	< 0	< 0	< 0	< 0	< 0	< 0	< 0	< 0
COC(=O)Nc1nc2cc(C(=O)c3cccs3)ccc2[nH]1 [Nocodazole]	38.1	31.7	63.1	60.6	61	52.9	60	75.6
O=C(NCCCNc1nc(Nc2cccc(NC(=O)N3CCCC3)c2)ncc1I)c1cccs1	10.6	< 0	< 0	21.6	< 0	< 0	21.1	9.13
CC(C)(C(=O)NCC(F)(F)C(F)(F)F)C(=O)N[C@@H]1C(=O)Nc2ccccc2-c2ccccc21	< 0	< 0	< 0	< 0	< 0	< 0	1.45	< 0
C[C@]12CCC(=O)C=C1[C@@H]1C[C@@H]1[C@H]1[C@@H]3[C@@H]4C[C@@H]4[C@@]4(CCC(=O)O4)[C@@]3(C)CC[C@@H]12 [Drospirenone]	< 0	< 0	< 0	< 0	< 0	< 0	< 0	< 0
COc1ccc2c(Oc3ccc(NC(=O)c4c(C)n(CC(C)(C)O)n(-c5ccccc5)c4=O)nc3)ccnc2c1	< 0	< 0	< 0	< 0	< 0	< 0	< 0	< 0
NC(=O)c1c(OCc2c(F)cc(Br)cc2F)nsc1NC(=O)NCCCCN1CCCC1	< 0	< 0	< 0	< 0	< 0	14.3	< 0	< 0

Two of the compounds above, bar-delimited.
SMILES | reduction in cell viability [1] [%] | reduction in cell viability [2] [%] | reduction in cell viability [3] [%] | reduction in cell viability [4] [%] | reduction in cell viability [5] [%] | reduction in cell viability [6] [%] | reduction in cell viability [7] [%] | reduction in cell viability [8] [%]
CC(C)(C(=O)NCC(F)(F)C(F)(F)F)C(=O)N[C@@H]1C(=O)Nc2ccccc2-c2ccccc21 | < 0 | < 0 | < 0 | < 0 | < 0 | < 0 | 1.45 | < 0
NC(=O)c1c(OCc2c(F)cc(Br)cc2F)nsc1NC(=O)NCCCCN1CCCC1 | < 0 | < 0 | < 0 | < 0 | < 0 | 14.3 | < 0 | < 0
